Data reported in patent US5439884A (Oregon Regional Primate Research Center, priority 1992, dated 1995).

Legend:
[1] = general procedure: Boc solid-phase peptide synthesis; methylbenzhydrylamine-polystyrene resin; diisopropylcarbodiimide (hydroxybenzotriazole for some residues); conditions: whole synthesis, scale 0.73 mmol
[2] = general procedure: Boc solid-phase peptide synthesis; benzhydrylamine-polystyrene resin; diisopropylcarbodiimide (hydroxybenzotriazole for some residues); conditions: whole synthesis, scale 0.5 mmole

Substance | isolated mass [1] | isolated mass [2]
pGlu-Gln-Trp-Ala-Val-Gly-His-Sta-NH2 | 77 mg | –
D-Phe-Gln-Trp-Ala-Val-Gly-His-Leu-.psi.[CH2 NH]-D-Phe-NH2 | – | 120 mg
pGlu-Gln-Trp-Ala-Val-Gly-His-Leu-psi[CH2NH]-Leu-NH2 | – | 60 mg
